Measurements published in paper PMC10617771.
No constants are given. Whether binding was seen depends on the method and setting. Binding seen in cells or lysates may run through a third protein. Some results given as binding are weak or reduced against the parent protein; the word gives no strength.

T1: DUSP8 (endogenous, murine primary T cells) (mouse (endogenous in murine primary T cells)) (UniProt O09112)
T1 sequence: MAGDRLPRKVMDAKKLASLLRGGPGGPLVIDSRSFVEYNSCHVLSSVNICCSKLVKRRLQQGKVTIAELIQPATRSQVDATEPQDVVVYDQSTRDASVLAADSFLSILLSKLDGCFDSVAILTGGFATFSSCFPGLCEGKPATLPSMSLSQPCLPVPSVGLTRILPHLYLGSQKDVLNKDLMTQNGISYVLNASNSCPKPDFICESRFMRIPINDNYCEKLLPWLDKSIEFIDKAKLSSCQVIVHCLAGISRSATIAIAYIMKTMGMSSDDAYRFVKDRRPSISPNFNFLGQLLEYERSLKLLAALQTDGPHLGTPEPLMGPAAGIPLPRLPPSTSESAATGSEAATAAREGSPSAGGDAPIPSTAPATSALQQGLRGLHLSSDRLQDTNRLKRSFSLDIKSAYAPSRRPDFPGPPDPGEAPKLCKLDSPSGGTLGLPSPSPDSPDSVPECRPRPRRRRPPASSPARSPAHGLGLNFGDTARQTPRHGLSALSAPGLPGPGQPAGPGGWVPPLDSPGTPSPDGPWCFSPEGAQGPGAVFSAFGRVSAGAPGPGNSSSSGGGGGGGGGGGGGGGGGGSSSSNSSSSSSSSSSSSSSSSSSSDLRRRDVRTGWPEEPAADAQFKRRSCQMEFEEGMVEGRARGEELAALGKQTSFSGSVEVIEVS

T2: DUSP8 (endogenous, human peripheral blood T cells) (human (endogenous in peripheral blood T cells)) (UniProt Q13202)
T2 sequence: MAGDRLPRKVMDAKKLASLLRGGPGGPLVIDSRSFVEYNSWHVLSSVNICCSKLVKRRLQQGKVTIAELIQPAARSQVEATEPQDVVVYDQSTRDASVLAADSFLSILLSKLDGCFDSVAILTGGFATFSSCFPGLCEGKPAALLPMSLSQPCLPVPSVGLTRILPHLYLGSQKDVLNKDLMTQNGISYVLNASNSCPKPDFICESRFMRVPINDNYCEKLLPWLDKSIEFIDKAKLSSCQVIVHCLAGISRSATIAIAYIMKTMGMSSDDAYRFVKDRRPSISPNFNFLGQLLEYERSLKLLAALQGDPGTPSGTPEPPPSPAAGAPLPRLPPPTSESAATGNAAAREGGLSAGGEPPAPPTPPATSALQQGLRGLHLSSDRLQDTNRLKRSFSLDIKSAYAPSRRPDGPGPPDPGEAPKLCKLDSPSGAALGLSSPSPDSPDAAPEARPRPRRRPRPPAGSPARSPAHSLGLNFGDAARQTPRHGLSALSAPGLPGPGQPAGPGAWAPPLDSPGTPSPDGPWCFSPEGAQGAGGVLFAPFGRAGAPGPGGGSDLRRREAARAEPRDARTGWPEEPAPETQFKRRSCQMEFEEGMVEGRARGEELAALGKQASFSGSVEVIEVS


What was measured:
[1] = molecular target: T1, DUSP8 (endogenous, murine primary T cells) (mouse (endogenous in murine primary T cells)); assay: proximity ligation; in situ PLA (Duolink in situ-red kit), methanol-fixed murine primary T cells, antibodies against DUSP8 and Pur-α, < 40 nm; with and without TGF-β stimulation
[2] = molecular target: T2, DUSP8 (endogenous, human peripheral blood T cells) (human (endogenous in peripheral blood T cells)); assay: proximity ligation; in situ PLA (Duolink in situ-red kit), methanol-fixed human peripheral blood T cells freshly isolated from people with asthma, people with atopic dermatitis and healthy controls; antibodies against DUSP8 and Pur-α, < 40 nm

Row | Binder | binding [1] | binding [2]
1 | Pur-α (endogenous, murine primary T cells) (protein, UniProt P42669 1-321) MADRDSGSEQGGAALGSGGSLGHPGSGSGSGGGGGGGGGGGGSGGGGGAPGGLQHETQELASKRVDIQNKRFYLDVKQNAKGRFLKIAEVGAGGNKSRLTLSMSVAVEFRDYLGDFIEHYAQLGPSQPPDLAQAQDEPRRALKSEFLVRENRKYYMDLKENQRGRFLRIRQTVNRGPGLGSTQGQTIALPAQGLIEFRDALAKLIDDYGVEEEPAELPEGTSLTVDNKRFFFDVGSNKYGVFMRVSEVKPTYRNSITVPYKVWAKFGHTFCKYSEEMKKIQEKQREKRAACEQLHQQQQQQQEETTAATLLLQGEEEGEED | binds | 
2 | Pur-α (endogenous, human peripheral blood T cells) (protein, UniProt Q00577 1-322) MADRDSGSEQGGAALGSGGSLGHPGSGSGSGGGGGGGGGGGGSGGGGGGAPGGLQHETQELASKRVDIQNKRFYLDVKQNAKGRFLKIAEVGAGGNKSRLTLSMSVAVEFRDYLGDFIEHYAQLGPSQPPDLAQAQDEPRRALKSEFLVRENRKYYMDLKENQRGRFLRIRQTVNRGPGLGSTQGQTIALPAQGLIEFRDALAKLIDDYGVEEEPAELPEGTSLTVDNKRFFFDVGSNKYGVFMRVSEVKPTYRNSITVPYKVWAKFGHTFCKYSEEMKKIQEKQREKRAACEQLHQQQQQQQEETAAATLLLQGEEEGEED |  | binds
